Values from PubChem BioAssay AID504793 (Drosophila RNAi Screening Center, 2011).
The deposit covers about 23,000 reagents; this is a random part of those with a known target gene and a result. Over the whole deposit, 62 (0.27%) are marked active. 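Calls come from follow-up tests whose scores are not deposited, so confirmed genes may have low counts here; counts are not normalised per plate.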 Raw values vary from plate to plate and are shown uncorrected. The numbers tell different reagents against one gene apart. A plus sign joins genes that one reagent is predicted to hit.

Screen: 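Knock-downs allowing continued mitosis even though DNA is damaged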 (primary screen)
Cells: Drosophila S2R+ cells
Knock-down reagent: long dsRNA against Drosophila genes, about 0.25 µg dsRNA per well
Duration: 4 days of dsRNA, then 4 hours of drug before read-out
Challenge: doxorubicin 0.5 µM for 4 hours to cause double-strand breaks, in cells also given a low, harmless dose of dsRNA against nbs to sensitise the assay
Detection: 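Mitotic index as the number of phospho-histone H3-positive cells in each well following doxorubicin, given as raw counts without normalisation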
Direction: mitotic cells: higher = more cells in mitosis, weaker G2 arrest
Rule for the call: 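Genes are called active only when high mitotic counts were reproduced with independent dsRNAs and mitosis was checked for delay without damage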
Calls: active = confirmed in follow-up tests; inactive = not confirmed

gene knocked down | dsRNA no. | mitotic cells, replicate 1 | mitotic cells, replicate 2 | call
CG31415 | 1 | 13 | – | inactive
CG13407 | 1 | 13 | – | inactive
CG13407 | 2 | 7 | – | inactive
Cpr78E | 1 | 3 | – | inactive
CG13126 | 1 | 7 | – | inactive
CG13126 | 2 | 8 | – | inactive
Ibf1 | 1 | 9 | – | inactive
sunn | 1 | 9 | – | inactive
ScpX | 1 | 5 | – | inactive
CG34235 + CG30058 + CG34312 | 1 | 8 | – | inactive
icln | 1 | 7 | – | inactive
icln | 2 | 3 | – | inactive
Myo28B1 | 1 | – | – | inactive
Myo28B1 | 2 | 4 | – | inactive
eIF4H2 | 1 | 9 | – | inactive
eIF4H2 | 2 | 4 | – | inactive
CG8578 | 1 | 5 | – | inactive
cd | 1 | 7 | – | inactive
Alg13 | 1 | 13 | – | inactive
Alg13 | 2 | 7 | – | inactive
peo | 1 | 6 | – | inactive
ihog | 1 | 4 | – | inactive
ihog | 2 | 15 | – | inactive
CG34277 + CG31542 | 1 | 12 | – | inactive
CG34277 + CG31542 | 2 | 3 | – | inactive
dpr18 | 1 | 9 | – | inactive
spi | 1 | 10 | – | inactive
spi | 2 | 4 | – | inactive
escl | 1 | 4 | – | inactive
escl | 2 | 5 | – | inactive
CG7183 | 1 | 5 | – | inactive
CG17029 | 1 | 4 | – | inactive
CG17029 | 2 | 3 | – | inactive
ProRS-m | 1 | 1 | – | inactive
ProRS-m | 2 | 3 | – | inactive
CG30274 | 1 | 1 | – | inactive
CG30274 | 2 | 8 | – | inactive
CG6738 | 1 | 11 | – | inactive
CG6738 | 2 | 1 | – | inactive
CG11158 | 1 | 7 | – | inactive
abo | 1 | 6 | – | inactive
dpa | 1 | 8 | – | inactive
Eo | 1 | 11 | – | inactive
Eo | 2 | 5 | – | inactive
TORIP | 1 | 1 | – | inactive
CG18870 | 1 | 6 | – | inactive
CG8854 | 1 | 2 | – | inactive
CG8854 | 2 | 5 | – | inactive
MTPAP | 1 | 6 | – | inactive
MTPAP | 2 | – | – | inactive
CG3735 | 1 | 7 | – | inactive
Pcyt1 | 1 | 10 | – | inactive
Pcyt1 | 2 | 4 | – | inactive
CG12123 | 1 | 7 | – | inactive
wfs1 | 1 | 6 | – | inactive
kin17 | 1 | 4 | – | inactive
kin17 | 2 | 6 | – | inactive
CG6765 | 1 | 4 | – | inactive
CG6765 | 2 | 5 | – | inactive
Cchl | 1 | – | – | inactive
trsn | 1 | 6 | – | inactive
CG30056 | 1 | 6 | – | inactive
CG13385 | 1 | 5 | – | inactive
Snap25 | 1 | 3 | – | inactive
Snap25 | 2 | 14 | 11 | inactive
CG13334 | 1 | 9 | – | inactive
nito | 1 | 7 | – | inactive

Only “mitotic cells, replicate 1”, for 8 of the entries above:
dpr18 = 9
spi #1 = 10
spi #2 = 4
escl #1 = 4
escl #2 = 5
CG7183 = 5
CG17029 #1 = 4
CG17029 #2 = 3

Continued.
gene knocked down | dsRNA no. | mitotic cells, replicate 1 | mitotic cells, replicate 2 | call
CG12818 | 1 | 1 | – | inactive
CG3927 | 1 | 2 | – | inactive
CG3927 | 2 | 11 | – | inactive
dsb | 1 | 10 | – | inactive
Rrp5 | 1 | 9 | – | inactive
Rrp5 | 2 | 10 | – | inactive
CG7512 | 1 | 5 | – | inactive
CG34444 | 1 | 7 | – | inactive
Ugt307A1 | 1 | 5 | – | inactive
CG14420 | 1 | 14 | – | inactive
CG14420 | 2 | 4 | – | inactive
PCID2 | 1 | 9 | – | inactive
PCID2 | 2 | 6 | – | inactive
CG30076 | 1 | 5 | – | inactive
CG30076 | 2 | 11 | – | inactive
CG11342 | 1 | 1 | – | inactive
CG11342 | 2 | 3 | – | inactive
CG8197 | 1 | 10 | – | inactive
CG1113 | 1 | 5 | – | inactive
CG9117 | 1 | 8 | – | inactive
elav | 1 | 6 | – | inactive
CG5506 | 1 | 2 | – | inactive
CG31826 | 1 | 7 | – | inactive
Klc | 1 | 3 | – | inactive
Klc | 2 | 6 | – | inactive
ArfGAP3 | 1 | 6 | – | inactive
ArfGAP3 | 2 | 9 | – | inactive
CG42272 | 1 | 12 | – | inactive
CG42272 | 2 | 5 | – | inactive
CG42272 | 3 | 3 | – | inactive
CG42272 | 4 | 4 | – | inactive
E(bx) | 1 | 7 | – | inactive
E(bx) | 2 | 21 | – | active
E(bx) | 3 | 39 | – | active
CG16879 (retired record) | 1 | 9 | – | inactive
CG16879 (retired record) | 2 | 10 | – | inactive
RunxA | 1 | 20 | – | inactive
RunxA | 2 | 8 | – | inactive
RunxA | 3 | 11 | – | inactive
RunxA | 4 | 7 | – | inactive
RunxA | 5 | 4 | – | inactive
CycG | 1 | 3 | – | inactive
CycG | 2 | 10 | – | inactive
